In patent publication US20030165887A1 (BURNHAM INSTITUTE, published 2003):
Results are given in words; binding and its absence hold for the method and conditions named. In cells and extracts the contact can be indirect. Some binding calls cover weakened binding; strength is not graded here.

Sequences of proteins named here, by UniProt entry; tags and fusion partners are left off. A change or cut given only in a name is not applied to a line headed by its entry.
UniProt P55211: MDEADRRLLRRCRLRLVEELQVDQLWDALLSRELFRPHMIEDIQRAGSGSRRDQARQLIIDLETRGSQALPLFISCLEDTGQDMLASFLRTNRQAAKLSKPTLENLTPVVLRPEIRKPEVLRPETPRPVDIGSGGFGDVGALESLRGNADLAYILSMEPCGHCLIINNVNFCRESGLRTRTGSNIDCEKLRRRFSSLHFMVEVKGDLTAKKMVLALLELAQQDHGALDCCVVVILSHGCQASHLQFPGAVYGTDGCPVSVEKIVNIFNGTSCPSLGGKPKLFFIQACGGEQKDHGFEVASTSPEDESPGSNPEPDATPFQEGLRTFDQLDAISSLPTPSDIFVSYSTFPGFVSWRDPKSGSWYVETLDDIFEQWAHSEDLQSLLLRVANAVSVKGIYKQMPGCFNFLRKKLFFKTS
UniProt Q9Y2G2: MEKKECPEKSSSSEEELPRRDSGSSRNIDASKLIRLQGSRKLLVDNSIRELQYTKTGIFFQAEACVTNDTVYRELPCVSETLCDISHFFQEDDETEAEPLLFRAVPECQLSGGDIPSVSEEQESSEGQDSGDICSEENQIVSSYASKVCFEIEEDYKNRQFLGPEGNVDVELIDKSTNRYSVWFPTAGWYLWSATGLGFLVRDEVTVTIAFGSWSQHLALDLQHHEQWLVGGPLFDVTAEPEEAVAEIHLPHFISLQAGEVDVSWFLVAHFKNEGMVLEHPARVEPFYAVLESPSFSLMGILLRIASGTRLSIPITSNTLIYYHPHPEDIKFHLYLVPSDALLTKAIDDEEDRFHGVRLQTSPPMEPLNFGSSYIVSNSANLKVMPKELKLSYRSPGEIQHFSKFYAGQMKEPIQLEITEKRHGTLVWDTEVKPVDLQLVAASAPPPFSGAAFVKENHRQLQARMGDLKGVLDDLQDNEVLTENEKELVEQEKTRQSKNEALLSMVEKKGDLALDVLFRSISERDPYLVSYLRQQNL

Tests used:
[1] = target: pro-caspase-9 inactive mutant (Cys287/Ala) (Homo sapiens (Human)) (UniProt P55211); test: co-immunoprecipitation, transfected cells, SDS-PAGE/immunoblot
[2] = target: TUCAN (Tumor Up-regulated CARD-containing Antagonist of Caspase Nine), full-length (Homo sapiens (Human)) (UniProt Q9Y2G2); test: co-immunoprecipitation (legend of FIG. 8)
[3] = target: pro-caspase-9 inactive mutant (Cys287/Ala) (Homo sapiens (Human)) (UniProt P55211); test: co-immunoprecipitation (legend of FIG. 8)
[4] = target: TUCAN CARD-only fragment (residues 345-431) (Homo sapiens (Human)) (UniProt Q9Y2G2); test: co-immunoprecipitation with HA- and Myc-tagged proteins
[5] = target: TUCAN (Tumor Up-regulated CARD-containing Antagonist of Caspase Nine), full-length (Homo sapiens (Human)) (UniProt Q9Y2G2); test: as above
[6] = target: pro-caspase-9 inactive mutant (Cys287/Ala) (Homo sapiens (Human)) (UniProt P55211); test: co-immunoprecipitation with anti-Flag or anti-Myc from transfected HEK293T lysates, SDS-PAGE/immunoblot
[7] = target: TUCAN (Tumor Up-regulated CARD-containing Antagonist of Caspase Nine), full-length (Homo sapiens (Human)) (UniProt Q9Y2G2); test: interaction tests with a panel of CARD-containing proteins (co-immunoprecipitation)
[8] = target: pro-caspase-9 inactive mutant (Cys287/Ala) (Homo sapiens (Human)) (UniProt P55211); test: as above

binding [1]	binding [2]	binding [3]	binding [4]	binding [5]	binding [6]	binding [7]	binding [8]	Molecule
binds	–	–	–	–	–	–	–	TUCAN CARD-only fragment (residues 345-431) (from UniProt Q9Y2G2 451-537)
binds	binds	binds	binds	binds	binds	binds	binds	TUCAN (Tumor Up-regulated CARD-containing Antagonist of Caspase Nine), full-length (other, Full-length TUCAN expressed by transient transfection in HEK293T cells; also called full-length TUCAN; CARD-X) MMRQRQSHYCSVLFLSVNYLGGTFPGDICSEENQIVSSYASKVCFEIEEDYKNRQFLGPEGNVDVELIDKSTNRYSVWFPTAGWYLWSATGLGFLVRDEVTVTIAFGSWSQHLALDLQHHEQWLVGGPLFDVTAEPEEAVAEIHLPHFISLQGEVDVSWFLVAHFKNEGMVLEHPARVEPFYAVLESPSFSLMGILLRIASGTRLSIPITSNTLIYYHPHPEDIKFHLYLVPSDALLTKAIDDEEDRFHGVRLQTSPPMEPLNFGSSYIVSNSANLKVMPKELKLSYRSPGEIQHFSKFYAGQMKEPIQLEITEKRHGTLVWDTEVKPVDLQLVAASAPPPFSGAAFVKENHRQLQARMGDLKGVLDDLQDNEVLTENEKELVEQEKTRQSKNEALLSMVEKKGDLALDVLFRSISERDPYLVSYLRQQNL
